# Measured values taken from publication PMC8124945.
# No constants are given. Whether binding was seen depends on the method and setting. Binding calls can cover weak binding; strength is not graded here. Where a sequence is shown, tags or fusion partners need not be part of it. For some assays here: Binding seen in cells or lysates may run through a third protein.
# How the values were obtained:
# [1] = target: T1, GAL4 BD-fused full-length AtC3H59/ZFWD3 (Arabidopsis thaliana) (UniProt Q9FKR9); assay: two-hybrid; GAL4 BD fusions (pBD-GAL4) and GAL4 AD fusions (pGADT7) co-transformed into yeast strain YD116 (GAL1::URA3, UAS_GAL4::lacZ); growth on SM-Trp/-Leu/-Ura at 30 °C and quantitative β-galactosidase ONPG assay
# T1 sequence: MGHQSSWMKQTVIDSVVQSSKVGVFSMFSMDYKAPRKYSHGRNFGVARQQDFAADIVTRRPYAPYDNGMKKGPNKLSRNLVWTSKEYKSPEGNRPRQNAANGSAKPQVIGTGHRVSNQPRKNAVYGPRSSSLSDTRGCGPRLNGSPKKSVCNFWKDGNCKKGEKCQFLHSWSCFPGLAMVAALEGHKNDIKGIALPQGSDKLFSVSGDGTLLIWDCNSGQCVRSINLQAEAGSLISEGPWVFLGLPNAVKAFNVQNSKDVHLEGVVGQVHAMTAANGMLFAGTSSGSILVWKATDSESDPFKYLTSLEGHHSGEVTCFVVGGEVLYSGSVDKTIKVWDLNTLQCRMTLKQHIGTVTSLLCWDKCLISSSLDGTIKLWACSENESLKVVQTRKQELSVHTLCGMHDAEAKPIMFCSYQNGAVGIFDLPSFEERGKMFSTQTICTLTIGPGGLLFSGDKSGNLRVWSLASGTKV
# [2] = target: T2, Full-length AtC3H59 fused to the C-terminal region of YFP (Arabidopsis thaliana) (UniProt Q9FKR9); assay: split reporter; BiFC with split YFP, transient expression in Arabidopsis protoplasts; YFP signals in the nucleus
# T2 sequence: T1 sequence
binding [1],binding [2],Substance
binds,–,GAL4 AD-fused full-length Desi1 (Arabidopsis thaliana)
–,binds,Full-length Desi1 fused to the N-terminal region of YFP (Arabidopsis thaliana)
